The list shows a part of the results.
What follows are sequences tested against T1, OsSMF1 (Oryza sativa, UniProt Q6ZLB0 1-436) (assay: protein-binding microarray (RPBM); PBS, 2% BSA, 51.3 ng/ul salmon testes DNA, 50 uM zinc acetate, 200 nM TF, 25 C, 1 h; high values mean tight binding). Details: protein: recombinant; tags: N-terminal polyhistidine and DsRed monomer fusion (pET32a); chain copies: 2; label: CyDye5-dUTP incorporated in the synthesized complementary strand; 3' TTTTT single-stranded linker to array surface; dsDNA, one strand shown.
T1 sequence: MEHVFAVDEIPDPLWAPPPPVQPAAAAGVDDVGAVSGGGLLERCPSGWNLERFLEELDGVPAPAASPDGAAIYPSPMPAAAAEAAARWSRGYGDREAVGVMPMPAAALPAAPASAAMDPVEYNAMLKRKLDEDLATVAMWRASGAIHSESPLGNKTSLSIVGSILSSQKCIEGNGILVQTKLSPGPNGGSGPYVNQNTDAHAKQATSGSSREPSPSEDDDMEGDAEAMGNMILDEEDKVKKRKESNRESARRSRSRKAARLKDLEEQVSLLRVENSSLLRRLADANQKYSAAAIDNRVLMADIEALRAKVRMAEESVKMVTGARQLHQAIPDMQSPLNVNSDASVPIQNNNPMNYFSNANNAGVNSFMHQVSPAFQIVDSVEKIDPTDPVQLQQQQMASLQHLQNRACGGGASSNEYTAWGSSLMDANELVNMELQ
How it was run: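 Binding signal here means per-feature fluorescence intensity in arbitrary units. The values were read on an Axon 4000B scanner after a custom Agilent array, double-stranded by primer extension with Cy5-dUTP, was incubated with 200 nM protein at 25 °C for 1 h in PBS with 2% BSA, salmon testes DNA and 50 µM zinc acetate, then washed. The proteins were transcription factors with an N-terminal polyhistidine tag and DsRed, expressed in E. coli BL21-CodonPlus and purified on Ni–NTA.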

Sequence	binding signal
AGCTGCAGCTCAAGCTGGAAGGCCACGAAGTGATTTTGTGCGGAGTCACCTAGTGCAG	3790 fluorescence intensity (a.u.)
CTCATCACCGCCGCCCACGTCACCCTCTACGACTTCAACACGGAGTCACCTAGTGCAG	16700 fluorescence intensity (a.u.)
TCCTACACAAAACATTTACACATTGTCACGTCGAACATTTCGGAGTCACCTAGTGCAG	3850 fluorescence intensity (a.u.)
GCTAAGAGTGTGTTATAGCTAAAACGTGACTCAAAGTAGTCGGAGTCACCTAGTGCAG	3570 fluorescence intensity (a.u.)
GCCCAGAAGATCACATATCGTCTCCACGTGTGCGTCTGGTCGGAGTCACCTAGTGCAG	12800 fluorescence intensity (a.u.)
CCGCGTCGCCCATTGTGACGAAGAGCCTCGTCGGCGTGGACGGAGTCACCTAGTGCAG	4410 fluorescence intensity (a.u.)
CAAAGTCTCGTTTTACCGTGGTTTTGGCTACGTGGACGATCGGAGTCACCTAGTGCAG	4330 fluorescence intensity (a.u.)
ATCAGGCCTGAATTTATAGTGACACCACTGGCCCATGATGCGGAGTCACCTAGTGCAG	4010 fluorescence intensity (a.u.)
CTCGATTCCCCTCTCCCCTCACTTTCTCTCTCTCTCTCTCCGGAGTCACCTAGTGCAG	28300 fluorescence intensity (a.u.)
GATTCTTTTCGTGACGTTTCACGTGTCGATCAGCAGTTGCCGGAGTCACCTAGTGCAG	4470 fluorescence intensity (a.u.)
CCCTCCGGTGGCCACCTCACCCATGGCTACTACACCGCGGCGGAGTCACCTAGTGCAG	5030 fluorescence intensity (a.u.)
TGATCTGGAATGTGGCGGTTACATGGGCCTGAACTGATGTCGGAGTCACCTAGTGCAG	13800 fluorescence intensity (a.u.)
GAGCTTCCTATCGCGCCGCCGCGTGCGTACGTGTTTGATCCGGAGTCACCTAGTGCAG	6120 fluorescence intensity (a.u.)
TCGCCTTGCCGCGCCCGCGCATTCCCGCAAACACCTCGCCCGGAGTCACCTAGTGCAG	29200 fluorescence intensity (a.u.)
TCAACTCCACGCTAGCATCTTCATTGTCGATTAGCAAAATCGGAGTCACCTAGTGCAG	3480 fluorescence intensity (a.u.)
AATATGGTGGTGGCACTACCACCTCAACATTCTTTTACACCGGAGTCACCTAGTGCAG	3500 fluorescence intensity (a.u.)
GATCCAATTGCCACATAAACTTCACGTCAATACCACGTGGCGGAGTCACCTAGTGCAG	8820 fluorescence intensity (a.u.)
CCGTCGACCACTTCGGCGGCCGCGTCACCATCGGCGACGTCGGAGTCACCTAGTGCAG	12300 fluorescence intensity (a.u.)
GCTTGTGTGCTGATCAGTAGAATAGACTGGTTTCTCAACACGGAGTCACCTAGTGCAG	34300 fluorescence intensity (a.u.)
CGGGATAATATCTCTGAGATATCGTCCGATACCAGTATCACGGAGTCACCTAGTGCAG	15600 fluorescence intensity (a.u.)
CCGTGAGATGACTTGGTTGTTCCACATAGGACAATGACATCGGAGTCACCTAGTGCAG	3620 fluorescence intensity (a.u.)
GAGTATATATGTACTAATCAGAAATCTGACAAGGCAACGTCGGAGTCACCTAGTGCAG	4330 fluorescence intensity (a.u.)
ATGACAAGTTGTAGTTGACGCAGCACTTGTTAAGTTTCTTCGGAGTCACCTAGTGCAG	5140 fluorescence intensity (a.u.)
AGGAATGCATTTGTGGTGGGTGCAGGTGCGCGGGTGGCGACGGAGTCACCTAGTGCAG	3340 fluorescence intensity (a.u.)
CATCTCTATCCATGTATTCATTAACACTGATGCTACATCTCGGAGTCACCTAGTGCAG	3310 fluorescence intensity (a.u.)
AAACCTCTATCCACGTCATATTTTATTTCTTGCAAGTATTCGGAGTCACCTAGTGCAG	20600 fluorescence intensity (a.u.)
GGCGGAGACGCGGGCGTGGCTCGGCGGCCTGCTAGTGTGACGGAGTCACCTAGTGCAG	3340 fluorescence intensity (a.u.)

Sequence	binding signal
CCACGCTGACTTAGCCGCCGCGTCAGACAAAACCGGGATCCGGAGTCACCTAGTGCAG	5500 fluorescence intensity (a.u.)
GAGCGAGTACAATAGCAGTCTACAAGTAAGTTGTAATCACCGGAGTCACCTAGTGCAG	17800 fluorescence intensity (a.u.)
TGTGTATTATGTATTAATTTGATGAGGTATATTCACCATCCGGAGTCACCTAGTGCAG	24300 fluorescence intensity (a.u.)
ATGATTTAATTACAAACAGATCCAGACTATGCCGTCGTGGCGGAGTCACCTAGTGCAG	7340 fluorescence intensity (a.u.)
CAAACCAGGCTTGCAAGTTGTAACATAGAGGTTGGTAGGTCGGAGTCACCTAGTGCAG	3270 fluorescence intensity (a.u.)
GACCGTTAAATATTTTAAAATGACTATATTACCCATCCTACGGAGTCACCTAGTGCAG	3250 fluorescence intensity (a.u.)
TCTCTCACTGCATAGACACCTGTCATCCATACATCCATCTCGGAGTCACCTAGTGCAG	3260 fluorescence intensity (a.u.)
TATTCAATGCTTTTGTATGTGCTGGAATTTGTCAATGGTGCGGAGTCACCTAGTGCAG	4420 fluorescence intensity (a.u.)
GCCAGATCTGGGCTCGCCGACGCCGTTGGCAGCCTCCTCCCGGAGTCACCTAGTGCAG	3190 fluorescence intensity (a.u.)
TGTCAATAATGCATCCTGCAGCTAACATCAAATGACATGGCGGAGTCACCTAGTGCAG	3150 fluorescence intensity (a.u.)
GATTTGTTTTGGTGGCCGCCGGGCCCAACCTGGCATCAACCGGAGTCACCTAGTGCAG	6680 fluorescence intensity (a.u.)
CGTGAGGGCACGTTATGTCGTGGGGTGTACAAAGAAAGGACGGAGTCACCTAGTGCAG	3170 fluorescence intensity (a.u.)
CTTAATGTGCCGTGTTACTGCCATGTAAGCTGGACGTTATCGGAGTCACCTAGTGCAG	4920 fluorescence intensity (a.u.)
TGCAGACATGGGGACAAATTGTCACGACGACAGCCTGGATCGGAGTCACCTAGTGCAG	3710 fluorescence intensity (a.u.)
CAGATCGAATTGCCACGTAATGCCACGTAAGTGCCACGTCCGGAGTCACCTAGTGCAG	32500 fluorescence intensity (a.u.)
ACACCCAGCTGCAATATGGATCACCAAACACCTCGATCCACGGAGTCACCTAGTGCAG	3780 fluorescence intensity (a.u.)
ATAAAGAGTCATCAGGAGTACACGTTAGACATGCAAATTCCGGAGTCACCTAGTGCAG	4770 fluorescence intensity (a.u.)
CCACCGCCGCGTCCATGGCCGCCACCTTCGTCAGCCTCACCGGAGTCACCTAGTGCAG	3220 fluorescence intensity (a.u.)
ATCGTTTCGCCGTCGATTTGCTGTCACCATACCCATGTAGCGGAGTCACCTAGTGCAG	3850 fluorescence intensity (a.u.)
ATATACTTAAGTGCCAAGTGTCAATATTTGTGGTTTTCTGCGGAGTCACCTAGTGCAG	4500 fluorescence intensity (a.u.)
GAGTGTGCTCCCCTAACCCACTCCCAATATTGCCACTCCCCGGAGTCACCTAGTGCAG	3240 fluorescence intensity (a.u.)
CAATCATATAATTGCTGCATGGATGAGCATATAAGTCGCACGGAGTCACCTAGTGCAG	3530 fluorescence intensity (a.u.)
GGAGGAGGAGGAGGTAGGGGAAATCCCCGTCGGCCGTCGGCGGAGTCACCTAGTGCAG	4610 fluorescence intensity (a.u.)
TGCGGGATTACGGAATGGGGTTTGATGGGAGTTGCGTCATCGGAGTCACCTAGTGCAG	5240 fluorescence intensity (a.u.)
GCGGTCGCCCTGCGCACTCTCGCCGCGTCACCACCGGAGCCGGAGTCACCTAGTGCAG	6390 fluorescence intensity (a.u.)
GATGGACCTTATTCCCACGGAGACCTGGCAGGATTTAGCTCGGAGTCACCTAGTGCAG	3200 fluorescence intensity (a.u.)
GCGCAAAAGCAAAGCCACGCTTTTCGTCAGGTTGATCTCTCGGAGTCACCTAGTGCAG	3490 fluorescence intensity (a.u.)

2 entries from above, as labelled records:
GACCGTTAAATATTTTAAAATGACTATATTACCCATCCTACGGAGTCACCTAGTGCAG
  binding signal: 3250 fluorescence intensity (a.u.)
GATGGACCTTATTCCCACGGAGACCTGGCAGGATTTAGCTCGGAGTCACCTAGTGCAG
  binding signal: 3200 fluorescence intensity (a.u.)

Reprinted at random: 2 entries already listed, in no set order.
Sequence	binding signal
TGTGTATTATGTATTAATTTGATGAGGTATATTCACCATCCGGAGTCACCTAGTGCAG	24300 fluorescence intensity (a.u.)
TATTCAATGCTTTTGTATGTGCTGGAATTTGTCAATGGTGCGGAGTCACCTAGTGCAG	4420 fluorescence intensity (a.u.)

From PMC7819943, “Rice protein-binding microarrays: a tool to detect cis-acting elements near promoter regions in rice”
